From the supplement of paper PMC10849652
This is one part of the list.

Amino acid sequences for entries named in this document (tags omitted). A change or cut given only in a name is not applied to a line headed by its entry.
UniProt A5PLN9: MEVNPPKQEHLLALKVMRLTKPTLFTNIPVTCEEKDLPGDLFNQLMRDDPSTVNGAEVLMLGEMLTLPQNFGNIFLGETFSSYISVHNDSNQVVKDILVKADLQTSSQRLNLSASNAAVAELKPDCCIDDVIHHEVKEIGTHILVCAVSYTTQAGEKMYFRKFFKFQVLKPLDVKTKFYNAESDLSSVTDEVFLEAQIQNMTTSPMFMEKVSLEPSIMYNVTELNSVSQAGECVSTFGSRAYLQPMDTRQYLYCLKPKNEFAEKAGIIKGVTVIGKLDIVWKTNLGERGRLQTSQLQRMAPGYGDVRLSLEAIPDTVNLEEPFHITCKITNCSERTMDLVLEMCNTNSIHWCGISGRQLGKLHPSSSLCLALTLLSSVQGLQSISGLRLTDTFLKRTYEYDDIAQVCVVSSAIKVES
UniProt Q15642: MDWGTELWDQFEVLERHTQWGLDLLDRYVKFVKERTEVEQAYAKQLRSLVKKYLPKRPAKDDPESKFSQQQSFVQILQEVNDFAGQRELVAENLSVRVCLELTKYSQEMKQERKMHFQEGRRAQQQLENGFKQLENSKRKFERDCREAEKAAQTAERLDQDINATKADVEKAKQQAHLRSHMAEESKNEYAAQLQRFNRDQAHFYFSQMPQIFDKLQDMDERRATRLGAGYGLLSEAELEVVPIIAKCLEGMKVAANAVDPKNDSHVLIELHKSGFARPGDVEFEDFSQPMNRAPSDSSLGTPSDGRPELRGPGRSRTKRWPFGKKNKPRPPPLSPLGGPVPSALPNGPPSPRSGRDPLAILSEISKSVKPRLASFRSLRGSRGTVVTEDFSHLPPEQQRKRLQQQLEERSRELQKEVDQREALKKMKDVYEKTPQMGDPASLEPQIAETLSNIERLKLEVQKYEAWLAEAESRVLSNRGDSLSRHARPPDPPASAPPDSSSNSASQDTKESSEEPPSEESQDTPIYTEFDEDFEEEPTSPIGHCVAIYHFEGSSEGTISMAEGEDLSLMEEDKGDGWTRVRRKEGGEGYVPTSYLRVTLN
UniProt Q9Y2L5: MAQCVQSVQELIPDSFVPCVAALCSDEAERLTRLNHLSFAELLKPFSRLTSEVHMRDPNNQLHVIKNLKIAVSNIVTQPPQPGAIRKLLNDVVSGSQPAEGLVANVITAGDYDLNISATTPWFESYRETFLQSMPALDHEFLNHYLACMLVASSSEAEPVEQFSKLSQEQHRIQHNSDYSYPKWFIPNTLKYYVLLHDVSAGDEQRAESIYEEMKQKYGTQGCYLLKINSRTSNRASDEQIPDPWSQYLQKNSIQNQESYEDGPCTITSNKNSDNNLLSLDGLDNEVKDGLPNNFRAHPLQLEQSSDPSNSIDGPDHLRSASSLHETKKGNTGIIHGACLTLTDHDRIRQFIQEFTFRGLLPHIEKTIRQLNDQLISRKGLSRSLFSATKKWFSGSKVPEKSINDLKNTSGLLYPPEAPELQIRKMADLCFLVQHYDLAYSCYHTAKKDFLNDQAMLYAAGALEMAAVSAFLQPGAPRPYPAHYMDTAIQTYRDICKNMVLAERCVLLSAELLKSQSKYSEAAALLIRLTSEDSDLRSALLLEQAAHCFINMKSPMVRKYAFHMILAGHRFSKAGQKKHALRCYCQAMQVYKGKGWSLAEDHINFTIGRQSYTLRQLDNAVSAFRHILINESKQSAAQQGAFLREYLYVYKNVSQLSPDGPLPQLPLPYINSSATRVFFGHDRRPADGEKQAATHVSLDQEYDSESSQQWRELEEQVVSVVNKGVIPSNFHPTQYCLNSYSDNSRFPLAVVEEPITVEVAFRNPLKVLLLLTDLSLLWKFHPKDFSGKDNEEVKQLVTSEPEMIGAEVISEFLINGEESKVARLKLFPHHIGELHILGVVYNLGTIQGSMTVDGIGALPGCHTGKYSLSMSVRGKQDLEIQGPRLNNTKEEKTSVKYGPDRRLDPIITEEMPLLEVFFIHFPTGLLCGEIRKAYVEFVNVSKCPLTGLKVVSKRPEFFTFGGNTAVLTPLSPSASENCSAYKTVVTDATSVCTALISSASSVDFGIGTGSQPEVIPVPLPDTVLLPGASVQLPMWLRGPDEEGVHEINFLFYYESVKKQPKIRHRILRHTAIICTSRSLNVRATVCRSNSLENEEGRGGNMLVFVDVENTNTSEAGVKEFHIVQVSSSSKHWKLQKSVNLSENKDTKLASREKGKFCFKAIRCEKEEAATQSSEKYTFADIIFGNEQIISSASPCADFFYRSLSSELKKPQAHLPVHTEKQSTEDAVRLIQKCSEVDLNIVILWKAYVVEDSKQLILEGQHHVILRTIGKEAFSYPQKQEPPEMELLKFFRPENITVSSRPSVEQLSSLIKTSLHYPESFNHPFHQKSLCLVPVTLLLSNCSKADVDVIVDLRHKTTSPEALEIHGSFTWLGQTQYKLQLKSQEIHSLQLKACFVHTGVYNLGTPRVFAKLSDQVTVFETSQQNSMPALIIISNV
UniProt O75865, whole entry, looked up: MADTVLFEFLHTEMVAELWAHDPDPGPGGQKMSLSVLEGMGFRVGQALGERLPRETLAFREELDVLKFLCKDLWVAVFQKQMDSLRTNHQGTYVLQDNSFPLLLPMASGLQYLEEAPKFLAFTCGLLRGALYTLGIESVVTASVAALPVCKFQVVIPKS
UniProt Q13263: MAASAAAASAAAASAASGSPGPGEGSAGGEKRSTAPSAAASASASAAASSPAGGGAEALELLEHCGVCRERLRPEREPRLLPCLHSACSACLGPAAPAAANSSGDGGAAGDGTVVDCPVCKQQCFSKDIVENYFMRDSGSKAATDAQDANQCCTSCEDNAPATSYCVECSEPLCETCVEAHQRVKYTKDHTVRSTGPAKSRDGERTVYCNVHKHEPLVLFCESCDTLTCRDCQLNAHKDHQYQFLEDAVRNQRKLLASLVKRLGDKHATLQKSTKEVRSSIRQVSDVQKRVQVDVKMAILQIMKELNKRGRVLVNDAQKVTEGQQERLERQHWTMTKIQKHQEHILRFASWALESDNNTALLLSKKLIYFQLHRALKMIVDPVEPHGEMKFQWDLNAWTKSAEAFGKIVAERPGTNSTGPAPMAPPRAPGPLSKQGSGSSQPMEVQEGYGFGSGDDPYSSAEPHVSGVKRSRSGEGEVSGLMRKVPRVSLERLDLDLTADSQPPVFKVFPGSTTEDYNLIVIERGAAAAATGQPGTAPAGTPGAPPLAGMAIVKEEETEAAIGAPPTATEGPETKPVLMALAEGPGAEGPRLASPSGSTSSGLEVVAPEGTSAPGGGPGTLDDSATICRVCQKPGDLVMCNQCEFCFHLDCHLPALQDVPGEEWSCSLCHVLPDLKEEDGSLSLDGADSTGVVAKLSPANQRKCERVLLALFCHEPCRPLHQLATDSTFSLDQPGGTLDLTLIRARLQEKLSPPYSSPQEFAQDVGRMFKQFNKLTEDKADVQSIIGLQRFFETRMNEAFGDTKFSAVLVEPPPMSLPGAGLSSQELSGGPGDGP
UniProt Q92574: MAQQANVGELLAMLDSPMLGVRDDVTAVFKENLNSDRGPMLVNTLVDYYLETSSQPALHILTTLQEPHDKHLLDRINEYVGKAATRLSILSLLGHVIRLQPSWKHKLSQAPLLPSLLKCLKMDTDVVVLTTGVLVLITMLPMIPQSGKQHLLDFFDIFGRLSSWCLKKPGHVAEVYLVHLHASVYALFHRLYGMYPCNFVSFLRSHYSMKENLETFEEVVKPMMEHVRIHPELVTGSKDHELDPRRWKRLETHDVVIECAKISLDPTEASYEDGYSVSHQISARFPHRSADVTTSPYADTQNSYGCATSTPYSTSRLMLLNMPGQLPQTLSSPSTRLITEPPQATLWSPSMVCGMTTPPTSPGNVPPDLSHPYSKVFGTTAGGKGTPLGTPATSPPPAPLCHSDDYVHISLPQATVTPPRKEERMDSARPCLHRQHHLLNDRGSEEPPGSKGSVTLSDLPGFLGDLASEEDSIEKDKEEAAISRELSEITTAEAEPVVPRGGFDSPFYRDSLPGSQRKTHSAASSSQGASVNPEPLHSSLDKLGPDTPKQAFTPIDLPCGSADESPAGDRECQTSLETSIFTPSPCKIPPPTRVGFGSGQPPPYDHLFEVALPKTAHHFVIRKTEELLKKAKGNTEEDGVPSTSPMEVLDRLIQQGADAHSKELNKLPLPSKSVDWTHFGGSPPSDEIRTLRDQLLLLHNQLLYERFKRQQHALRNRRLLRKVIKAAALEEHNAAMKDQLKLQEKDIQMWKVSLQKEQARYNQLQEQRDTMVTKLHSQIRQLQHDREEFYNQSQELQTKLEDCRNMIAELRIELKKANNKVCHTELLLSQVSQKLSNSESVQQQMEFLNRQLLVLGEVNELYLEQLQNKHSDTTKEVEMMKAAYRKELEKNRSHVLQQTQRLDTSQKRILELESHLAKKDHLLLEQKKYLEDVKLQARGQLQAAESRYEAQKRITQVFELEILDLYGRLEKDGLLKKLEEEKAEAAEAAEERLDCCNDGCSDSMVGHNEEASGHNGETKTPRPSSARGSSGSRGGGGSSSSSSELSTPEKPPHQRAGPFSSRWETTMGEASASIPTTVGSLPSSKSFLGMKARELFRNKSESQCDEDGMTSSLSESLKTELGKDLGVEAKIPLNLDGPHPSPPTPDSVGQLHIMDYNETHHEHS
UniProt Q9H4I3: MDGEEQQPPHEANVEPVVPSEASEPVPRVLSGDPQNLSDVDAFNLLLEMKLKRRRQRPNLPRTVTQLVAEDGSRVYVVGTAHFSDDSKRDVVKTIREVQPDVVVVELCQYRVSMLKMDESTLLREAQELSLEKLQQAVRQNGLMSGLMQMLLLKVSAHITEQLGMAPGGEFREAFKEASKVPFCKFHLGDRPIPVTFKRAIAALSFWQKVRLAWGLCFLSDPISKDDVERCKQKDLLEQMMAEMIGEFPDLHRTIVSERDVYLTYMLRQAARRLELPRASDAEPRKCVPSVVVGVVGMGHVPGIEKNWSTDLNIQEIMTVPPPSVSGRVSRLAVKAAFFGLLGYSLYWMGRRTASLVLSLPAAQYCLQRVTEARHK
UniProt Q9Y5R8, whole entry, looked up: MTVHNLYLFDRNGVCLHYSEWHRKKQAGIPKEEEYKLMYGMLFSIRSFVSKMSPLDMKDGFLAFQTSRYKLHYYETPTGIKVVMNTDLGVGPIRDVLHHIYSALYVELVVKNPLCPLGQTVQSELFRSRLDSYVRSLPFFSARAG
UniProt P07951, whole entry, looked up: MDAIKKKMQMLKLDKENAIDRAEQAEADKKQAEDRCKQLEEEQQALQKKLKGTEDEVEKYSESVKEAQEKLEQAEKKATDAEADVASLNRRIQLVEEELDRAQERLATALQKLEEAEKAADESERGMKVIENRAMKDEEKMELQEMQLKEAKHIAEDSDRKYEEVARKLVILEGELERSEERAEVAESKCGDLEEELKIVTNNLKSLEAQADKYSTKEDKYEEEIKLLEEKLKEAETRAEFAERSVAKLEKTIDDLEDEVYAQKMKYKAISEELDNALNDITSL
UniProt Q6PJ69: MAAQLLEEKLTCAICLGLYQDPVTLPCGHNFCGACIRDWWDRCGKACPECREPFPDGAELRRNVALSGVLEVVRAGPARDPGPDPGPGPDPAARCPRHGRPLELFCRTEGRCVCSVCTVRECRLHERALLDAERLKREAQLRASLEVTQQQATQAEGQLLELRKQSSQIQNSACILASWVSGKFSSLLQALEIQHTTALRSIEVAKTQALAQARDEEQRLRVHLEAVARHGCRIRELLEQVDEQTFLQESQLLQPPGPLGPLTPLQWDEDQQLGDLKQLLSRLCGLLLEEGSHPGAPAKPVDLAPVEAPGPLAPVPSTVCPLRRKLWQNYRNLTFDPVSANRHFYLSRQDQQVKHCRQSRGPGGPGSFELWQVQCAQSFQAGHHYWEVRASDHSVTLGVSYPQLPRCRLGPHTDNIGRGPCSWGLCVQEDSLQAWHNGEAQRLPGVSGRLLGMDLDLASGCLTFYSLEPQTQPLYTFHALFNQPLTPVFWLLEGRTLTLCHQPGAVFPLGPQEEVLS

Assays:
Experiment in all cases: log2 fold change, soluble protein after heating vs DMSO (PISA); higher = thermal stabilisation; K562 cells, 10 uM, 30 min; active = over 0.2 and 3.5 SD of the protein, either way, in both replicates (recomputed)
[1] = compound: CC[C@@H]1C(=O)N(C)c2cnc(Nc3ccc(C(=O)NC4CCN(C)CC4)cc3OC)nc2N1C1CCCC1
Summary of the method: (§1)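 K562 cells (2×10^6 cells/mL) were treated with 10 μM compound for 30 min, and aliquots were heated for 3 min over 48°C-58°C. Pooled aliquots were extracted in PBS with 0.5% NP-40 at 4°C, and the supernatant after 21,000xg for 90 min was measured by TMTpro 16plex LC-MS/MS with channel sums equalised. Reported thermal stability, relative to control samples and from duplicates, is a log2 fold change.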

volasertib = compound: CC[C@@H]1C(=O)N(C)c2cnc(Nc3ccc(C(=O)N[C@H]4CC[C@H](N5CCN(CC6CC6)CC5)CC4)cc3OC)nc2N1C(C)C [volasertib]
Summary of the method: as §1

[2] = compound: CC[C@H](C)N1C=C(C2=C(C=C(C=C21)C3=CN=C(C=C3)N4CCNCC4)C(=O)NCC5=C(C=C(NC5=O)C)C)C
Summary of the method: as §1

epoxomicin = compound: CC[C@H](C)[C@@H](C(=O)N[C@@H]([C@@H](C)O)C(=O)N[C@@H](CC(C)C)C(=O)[C@]1(CO1)C)NC(=O)[C@H]([C@@H](C)CC)N(C)C(=O)C [epoxomicin]
Summary of the method: as §1

[3] = compound: CCn1cc(-c2ccnc3[nH]c(-c4cccc(CN(C)C)c4)cc23)c(-c2ccc(NC(=O)N(C)C)cc2)n1
Summary of the method: as §1

[4] = compound: CN(C)CC(=O)Nc1ccc2[nH]c(=O)c3ccccc3c2c1
Summary of the method: as §1

[5] = compound: CN1C2=C(C3=C1C(=O)N(N=C3)CC4=CC(=CC=C4)N)SC(=C2)S(=O)C
Summary of the method: as §1

[6] = compound: CN1CCC(CNc2ccc3ncc(-c4cccc(OC(F)(F)F)c4)n3n2)CC1
Summary of the method: as §1

[7] = compound: CCn1c(C(=O)N(C2CC2)C2CC2)cc2c3c(ncn3C)c(Nc3cc(C)n(C)n3)nc21
Summary of the method: as §1

rosiglitazone = compound: CN(CCOC1=CC=C(C=C1)C[C@H]2C(=O)NC(=O)S2)C3=CC=CC=N3 (racemic) [rosiglitazone]
Summary of the method: as §1

TRAPPC13 isoform 5 (UniProt A5PLN9)
log2 fold change [1]: inactive: -0.055 | log2 fold change (volasertib): inactive: -0.34 | log2 fold change [2]: inactive: 0.044 | log2 fold change (epoxomicin): inactive: -0.014 | log2 fold change [3]: inactive: -0.068 | log2 fold change [4]: inactive: 0.078 | log2 fold change [5]: inactive: 0.042 | log2 fold change [6]: inactive: -0.187

TP53BP1 isoform 2 (UniProt Q12888)
log2 fold change [1]: inactive: -0.024 | log2 fold change (volasertib): inactive: -0.072 | log2 fold change [2]: inactive: 0.021 | log2 fold change (epoxomicin): inactive: 0 | log2 fold change [3]: inactive: 0 | log2 fold change [4]: inactive: 0.008 | log2 fold change [5]: inactive: 0.052 | log2 fold change [6]: inactive: 0.025

TRIP10 isoform 2 (UniProt Q15642)
log2 fold change [1]: inactive: -0.033 | log2 fold change (volasertib): inactive: -0.276 | log2 fold change [2]: inactive: -0.018 | log2 fold change (epoxomicin): inactive: -0.285 | log2 fold change [3]: inactive: -0.101 | log2 fold change [4]: inactive: -0.18 | log2 fold change [5]: inactive: 0.045 | log2 fold change [6]: inactive: -0.075

TRAPPC8 (UniProt Q9Y2L5)
log2 fold change [1]: inactive: -0.092 | log2 fold change (volasertib): active: -0.287 | log2 fold change [2]: inactive: 0.077 | log2 fold change (epoxomicin): inactive: 0.033 | log2 fold change [3]: inactive: -0.073 | log2 fold change [4]: inactive: 0.015 | log2 fold change [5]: inactive: 0.04 | log2 fold change [6]: inactive: -0.099

TOP2A isoform 4 (UniProt P11388)
log2 fold change [1]: inactive: 0.198 | log2 fold change (volasertib): inactive: 0.226 | log2 fold change [2]: inactive: 0.106 | log2 fold change (epoxomicin): inactive: -0.231 | log2 fold change [3]: inactive: 0.156 | log2 fold change [4]: inactive: -0.194 | log2 fold change [5]: inactive: 0.526 | log2 fold change [6]: inactive: 0.128

TRAPPC6A isoform 2 (UniProt O75865)
log2 fold change [1]: inactive: -0.117 | log2 fold change (volasertib): inactive: -0.269 | log2 fold change [2]: inactive: 0.034 | log2 fold change [7]: inactive: -0.04 | log2 fold change (rosiglitazone): inactive: -0.434

TRIM28 (UniProt Q13263)
log2 fold change [1]: inactive: -0.097 | log2 fold change (volasertib): active: -0.222 | log2 fold change [2]: inactive: 0.052 | log2 fold change (epoxomicin): inactive: 0.077 | log2 fold change [3]: inactive: 0 | log2 fold change [4]: inactive: 0.047 | log2 fold change [5]: inactive: -0.033 | log2 fold change [6]: inactive: -0.033

TSC1 (UniProt Q92574)
log2 fold change [1]: inactive: -0.693 | log2 fold change (volasertib): inactive: -0.463 | log2 fold change [7]: inactive: 0.026 | log2 fold change [4]: inactive: 0.168 | log2 fold change [5]: inactive: -0.144

TRABD (UniProt Q9H4I3)
log2 fold change [1]: inactive: 0.245 | log2 fold change (volasertib): inactive: 0.215 | log2 fold change [2]: inactive: 0 | log2 fold change (epoxomicin): inactive: -0.004 | log2 fold change [3]: inactive: -0.108 | log2 fold change [4]: inactive: 0.029 | log2 fold change [6]: inactive: 0.228

TRAPPC1 (UniProt Q9Y5R8)
log2 fold change [1]: inactive: 0.027 | log2 fold change (volasertib): inactive: -0.099 | log2 fold change [2]: inactive: -0.003 | log2 fold change [7]: inactive: -0.007 | log2 fold change [3]: inactive: -0.162 | log2 fold change [4]: inactive: 0.056 | log2 fold change (rosiglitazone): inactive: -0.061 | log2 fold change [5]: inactive: -0.096 | log2 fold change [6]: inactive: 0.031

TRIO (UniProt O75962)
log2 fold change [1]: inactive: -0.018 | log2 fold change [2]: inactive: -0.007 | log2 fold change (epoxomicin): inactive: -0.032 | log2 fold change [7]: inactive: -0.068 | log2 fold change (rosiglitazone): inactive: 0.08

TPM2 (UniProt P07951)
log2 fold change [1]: inactive: -0.07 | log2 fold change (volasertib): inactive: 0.173 | log2 fold change [2]: inactive: 0.069 | log2 fold change (epoxomicin): inactive: 0.287 | log2 fold change [3]: inactive: -0.04 | log2 fold change [4]: inactive: -0.057 | log2 fold change [5]: inactive: -0.023 | log2 fold change [6]: inactive: 0.118

TRIM65 (UniProt Q6PJ69)
log2 fold change [1]: inactive: 0.098
